# The whole screen tested about 410,000 compounds, of which about 2,000 (0.49%) were called active. This list was built around the results that the source calls inconclusive (neither active nor inactive); the mix of calls is not that of the screen. Calls follow the shape of the full dose curve; tested in HEK293 reporter line. Potencies of inconclusive entries are doubtful fits and often do not repeat.
# Assay: qHTS Assay for Foot and Mouth Disease Virus Antivirals: Primary Screen against the MLPCN compound library; also: nearly all actives have a fitted effect of over 55% in size
# Settings: FMDV antiviral cell-based qHTS; activity, negative = inhibition: at 57.9 µM (top of the series)
# Potency is read from the fitted curve at half-maximal effect.
SMILES,Potency,"activity, negative = inhibition"
CCOc1ccccc1N1CCN(CC(=O)Nc2nnc(CC)s2)CC1,"inconclusive: 22.4 µM [inhibitor, single point]",
COc1ccc(C(=O)Nc2onc3c2CCCC3)cc1,active: 12.6 µM,
CCCCCn1c(CN2CCN(c3cc(Cl)ccc3C)CC2)nc2c1c(=O)[nH]c(=O)n2C,"inconclusive: 28.2 µM [inhibitor, partial curve, poor fit]",
O=C(c1ccco1)N1CCN(c2nc(C3CC3)nc3c2nnn3Cc2ccccc2Cl)CC1,"inconclusive: 35.5 µM [inhibitor, partial curve, poor fit]",
Cc1ccc(-c2nc3cc(N)ccc3o2)cc1,"inconclusive: 15.8 µM [inhibitor, single point]",
CCOc1ccc(/C(O)=C2/C(=O)C(=O)N(c3cc(C)on3)C2c2ccc(C(=O)OC)cc2)cc1 (configuration not stated),"inconclusive: 11.2 µM [inhibitor, partial curve, poor fit]",
COc1cc(S(=O)(=O)N2CCN(C(=O)c3ccccc3F)CC2)c(OC)cc1NC(C)=O,,inconclusive: -30.1% [inhibitor]
COc1cc(Cl)c(NC(=O)c2cc(S(=O)(=O)N3CCOCC3)cn2C)c(OC)c1,"inconclusive: 2.82 µM [inhibitor, partial curve, poor fit]",
O=C(C1CCCC1)N1CCN=C1SCc1cccc([N+](=O)[O-])c1,"inconclusive: 20 µM [inhibitor, partial curve, poor fit]",
C#CCN(C[C@@H]1[C@@H](OC(=O)NCc2ccco2)[C@@H](OC(=O)NCc2ccco2)Cn2c(=O)ccc(=O)n21)S(=O)(=O)c1ccc(C)cc1,"inconclusive: 6.31 µM [inhibitor, partial curve, poor fit]",
Cc1cccc(N2CCN(C(=O)c3cccc(N4C(=O)C5CC=CC(C)C5C4=O)c3)CC2)c1C (configuration not stated),"inconclusive: 7.94 µM [inhibitor, partial curve, poor fit]",
O=[N+]([O-])c1ccc2oc(-c3cccc(O)c3)nc2c1,"inconclusive: 39.8 µM [inhibitor, single point]",
Cc1oc(-c2ccccc2F)nc1CN1CCC(C(=O)NCCc2ccc(Cl)cc2)CC1,"inconclusive: 14.1 µM [inhibitor, partial curve, poor fit]",
O=C(NCc1ccco1)c1cnn2c(C(F)(F)F)cc(-c3ccco3)nc12,"inconclusive: 22.4 µM [inhibitor, partial curve, poor fit]",
CCCCCCCCCCCCn1ccc(=N)cc1,"inconclusive: 17.8 µM [inhibitor, partial curve, poor fit]",
CCOC(=O)[C@]12Cc3ccc(C)cc3[C@H]1N(C1CCCCC1)C(=O)c1ccccc12,"inconclusive: 6.31 µM [inhibitor, partial curve, poor fit]",
O=C(O)/C=C/C(=O)Nc1ccc(OC(F)(F)F)cc1Br,"inconclusive: 14.1 µM [inhibitor, partial curve, poor fit]",
COc1ccccc1N1CCN(C2=Nc3cccc4cccc2c34)CC1,"inconclusive: 39.8 µM [inhibitor, single point]",
NC(=O)c1ccsc1NC(=O)COC(=O)Cc1c[nH]c2ccccc12,"inconclusive: 20 µM [inhibitor, partial curve, poor fit]",

SMILES,Potency,"activity, negative = inhibition"
CCCCC1Cc2[nH][nH]c(=O)c2C(c2ccc(F)cc2)O1 (configuration not stated),,inconclusive: -30.1% [inhibitor]
Fc1cccc(F)c1-n1c(CN2CCOCC2)csc1=S,"inconclusive: 12.6 µM [inhibitor, partial curve, poor fit]",
COC(=O)c1ccc2c(=O)n(CCCCCC(=O)N3CCN(c4ccccc4)CC3)c(=O)[nH]c2c1,"inconclusive: 11.2 µM [inhibitor, partial curve, poor fit]",
O=C(CN1CCN(S(=O)(=O)c2cc(C(F)(F)F)ccc2Cl)CC1)N1CCc2ccccc2C1,inactive,
CC(CNC(=O)c1ccccc1[N+](=O)[O-])NC(=O)c1ccccc1[N+](=O)[O-] (configuration not stated),"inconclusive: 5.01 µM [inhibitor, full curve]",
COc1ccccc1-c1noc(CCC(=O)Nc2cc(C(F)(F)F)ccc2Cl)n1,"inconclusive: 25.1 µM [inhibitor, single point]",
NC(=O)c1ccccc1OCC(=O)N1CCC(Cc2ccccc2)CC1,"inconclusive: 31.6 µM [inhibitor, partial curve, poor fit]",
COc1cccc(N2CCN(CC(=O)NC(=O)NC3CCCCC3)CC2)c1,"inconclusive: 12.6 µM [inhibitor, partial curve, poor fit]",
Cc1cccc(N2CCN(S(=O)(=O)c3c(C)noc3/C=C/N(C)C)CC2)c1C,"inconclusive: 15.8 µM [inhibitor, partial curve, poor fit]",
Cc1sc2ncnc(N3CCC(C(=O)Nc4ccccc4C(C)(C)C)CC3)c2c1C,"inconclusive: 25.1 µM [inhibitor, partial curve, poor fit]",
CC(=O)c1cccc(NC(=O)CN2CCc3cc4c(cc3C2C)OCCCO4)c1 (configuration not stated),inactive,
O=C(C1CCN(c2ncnc3c2nc2n3CCCCC2)CC1)N1CCN(c2cccc(Cl)c2)CC1,"inconclusive: 31.6 µM [inhibitor, partial curve, poor fit]",
O=c1c2cnn(-c3ccccc3)c2ncn1Cc1ccccc1,inactive,
CS(=O)(=O)N(CC(=O)Nc1ccccc1-c1ccccc1)c1ccc(F)cc1,"inconclusive: 2 µM [inhibitor, full curve]",
Cc1ccc(S(=O)(=O)c2ccc([N+](=O)[O-])o2)cc1,"inconclusive: 17.8 µM [inhibitor, partial curve, poor fit]",
COc1ccc(Nc2cc(C(=O)NCCCN3CCN(c4ccc(OC)cc4)CC3)c3ccccc3n2)cc1,"inconclusive: 39.8 µM [inhibitor, partial curve, poor fit]",
Cc1ccc(-c2cc(-c3ccccc3)no2)cc1,"inconclusive: 20 µM [inhibitor, single point]",
C[C@]12C=C[C@H](O)CC1=CCC1C2CC[C@@]2(C)C1CCC21OCCO1 (some centres not stated),"inconclusive: 25.1 µM [inhibitor, partial curve, poor fit]",
Cc1cc(C(=O)COC(=O)c2cc(O)c3ccccc3c2O)c(C)n1CC1CCCO1 (configuration not stated),"inconclusive: 28.2 µM [inhibitor, partial curve, poor fit]",

SMILES,Potency,"activity, negative = inhibition"
COC(=O)[C@]12CCCCC=C1N(Cc1cccc3ccccc13)C(=O)[C@H](CC(=O)NCc1ccc(OC)c(OC)c1)C2,"inconclusive: 14.1 µM [inhibitor, partial curve, poor fit]",
Cc1[nH]nc(C(F)(F)F)c1N=NN1CCOCC1,"inconclusive: 20 µM [inhibitor, partial curve, poor fit]",
c1csc(-c2nnc(-c3ccc(N4CCOCC4)cc3)o2)c1,"inconclusive: 17.8 µM [inhibitor, single point]",
NC1=C(Br)C(=O)c2ncccc2C1=O,"inconclusive: 3.98 µM [inhibitor, full curve, poor fit]",
Cc1cc(C)cc(NC(=O)C(Cc2ccccc2)NS(=O)(=O)c2ccc3c(c2)c(=O)n(C)c(=O)n3C)c1 (configuration not stated),"inconclusive: 15.8 µM [inhibitor, partial curve, poor fit]",
Cn1ncc2c(N3CCN(c4cccc(Cl)c4)CC3)ncnc21,"inconclusive: 15.8 µM [inhibitor, partial curve, poor fit]",
CCOC(=O)N1CCc2c(sc(NCc3sccc3C)c2C(=O)Nc2ccc(OC)cc2OC)C1,"inconclusive: 31.6 µM [inhibitor, partial curve, poor fit]",
Cc1noc(C)c1COc1ccc(C(=O)N2CCN(c3ccccn3)CC2)cc1,inactive,
COc1ccc(NC(=O)/C(Cl)=C(/Cl)S(=O)(=O)Cc2ccccc2)cn1,"inconclusive: 20 µM [inhibitor, partial curve, poor fit]",
Cc1cccc(N2CCN(CCCNc3ncnc4onc(-c5ccc(Cl)cc5)c34)CC2C)c1 (configuration not stated),"inconclusive: 5.01 µM [inhibitor, partial curve, poor fit]",
CC(C)(C)c1ccc(C(=O)Nc2nnc(SCC(=O)NCC3CCCO3)s2)cc1 (configuration not stated),active: 14.1 µM,
CCOc1ccccc1CNC(=O)C1CCN(C(=O)N2CC(CC)Oc3ccc(C)cc32)CC1 (configuration not stated),"inconclusive: 35.5 µM [inhibitor, partial curve, poor fit]",
Cc1ccc(C2CCN(C(=O)Nc3ccccc3)C2)cc1 (configuration not stated),"inconclusive: 39.8 µM [inhibitor, single point]",
CCc1ccc2ncc3c(-c4ccccc4)nn(-c4ccccc4)c3c2c1,"inconclusive: 25.1 µM [inhibitor, partial curve, poor fit]",
COc1ccc(CCNC(=O)c2nnn(-c3ccc4c(c3)OCCO4)c2N)cc1OC,"inconclusive: 3.55 µM [inhibitor, partial curve, poor fit]",
COC(=O)c1c(NC(NC(C)=O)C(Cl)(Cl)Cl)sc2c1CCCC2 (configuration not stated),"inconclusive: 35.5 µM [inhibitor, single point]",
Cn1c(=O)c2c(nc(N3CCCCC3)n2CC(O)COc2ccccc2)n(C)c1=O (configuration not stated),inactive,
Cc1cccc(-c2nc3cc(NC(=O)C4CCCO4)ccc3o2)c1 (configuration not stated),"inconclusive: 15.8 µM [inhibitor, single point]",
O=C(C1COc2ccccc2O1)N1CCN(c2nc3c(F)cccc3s2)CC1 (configuration not stated),"inconclusive: 22.4 µM [inhibitor, partial curve, poor fit]",

# An excerpt of these results, bar-delimited:
SMILES | Potency | activity, negative = inhibition
COc1ccc(NC(=O)/C(Cl)=C(/Cl)S(=O)(=O)Cc2ccccc2)cn1 | inconclusive: 20 µM [inhibitor, partial curve, poor fit] | 
Cc1cccc(N2CCN(CCCNc3ncnc4onc(-c5ccc(Cl)cc5)c34)CC2C)c1 (configuration not stated) | inconclusive: 5.01 µM [inhibitor, partial curve, poor fit] | 
CC(C)(C)c1ccc(C(=O)Nc2nnc(SCC(=O)NCC3CCCO3)s2)cc1 (configuration not stated) | active: 14.1 µM | 
CCOc1ccccc1CNC(=O)C1CCN(C(=O)N2CC(CC)Oc3ccc(C)cc32)CC1 (configuration not stated) | inconclusive: 35.5 µM [inhibitor, partial curve, poor fit] | 
